From the supplement of paper PMC10331698
± gives the standard deviation of the averaged measurements. Most values lie at the level of the controls, where differences are scatter.

Key:
Assay in all cases: level (log10 ratio to DMSO vehicle control); higher = higher biomarker level / cell amount than vehicle control
[1] = compound: C=C(C)C(=O)OCCC(F)(F)C(F)(F)C(F)(F)C(F)(F)C(F)(F)C(F)(F)F [6:2 Fluorotelomer methacrylate] (in DMSO); settings: 2200 nM
Protocol: (§1)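 BioMAP Diversity Plus panel of 12 human primary cell co-culture systems (3C, 4H, LPS, SAg, BT, BF4T, BE3C, CASM3C, HDF3CGF, KF3CT, MyoF, Mphg). Compounds were added 1 h before stimulation and left for 24 h (MyoF 48 h; BT 72 h for soluble read-outs or 6 d for IgG). Biomarkers were read by ELISA, cytotoxicity by SRB, PBMC viability and proliferation by Alamar Blue. Each well value was divided by the mean of 8 DMSO control wells on the same plate and log10 transformed; duplicate blinded samples were tested at 4 concentrations.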

[2] = compound: CNS(=O)(=O)C(F)(F)C(F)(F)C(F)(F)C(F)(F)C(F)(F)C(F)(F)C(F)(F)C(F)(F)F [N-Methylperfluorooctanesulfonamide] (in DMSO); settings: 2200 nM
Protocol: as §1

[3] = compound: FC(F)(F)C(F)(F)C(F)(F)C(F)(F)CCI [1H,1H,2H,2H-Perfluorohexyl iodide] (in DMSO); settings: 2200 nM
Protocol: as §1

[4] = compound: FC(F)(F)C(F)(F)CNCC(F)(F)C(F)(F)F [Bis(1H,1H-perfluoropropyl)amine] (in DMSO); settings: 2200 nM
Protocol: as §1

[5] = compound: FC(F)(F)COC(OCC(F)(F)F)OCC(F)(F)F [tris(Trifluoroethoxy)methane] (in DMSO); settings: 2200 nM
Protocol: as §1

Hexafluoroglutaric acid = compound: O=C(O)C(F)(F)C(F)(F)C(F)(F)C(=O)O [Hexafluoroglutaric acid] (in DMSO)
Protocol: as §1

Perfluorohexanoic acid = compound: O=C(O)C(F)(F)C(F)(F)C(F)(F)C(F)(F)C(F)(F)F [Perfluorohexanoic acid] (in DMSO)
Protocol: as §1

[6] = compound: O=C(O)C(F)(F)C(F)(F)C(F)(F)OC(F)(C(F)(F)F)C(F)(F)F [Perfluoro-4-isopropoxybutanoic acid] (in DMSO); settings: 2200 nM
Protocol: as §1

[7] = compound: O=C(O)C(F)(OC(F)(F)C(F)(F)C(F)(F)F)C(F)(F)F [Ammonium perfluoro-2-methyl-3-oxahexanoate] (in Water)
Protocol: as §1

[8] = compound: O=C(O)C(F)(OC(F)(F)C(F)(OC(F)(F)C(F)(OC(F)(F)C(F)(F)C(F)(F)F)C(F)(F)F)C(F)(F)F)C(F)(F)F [Perfluoro-(2,5,8-trimethyl-3,6,9-trioxadodecanoic)acid] (in DMSO); settings: 370 nM
Protocol: as §1

[9] = compound: O=C(O)CCC(F)(F)C(F)(F)C(F)(F)F [3:3 Fluorotelomer carboxylic acid] (in DMSO); settings: 2200 nM
Protocol: as §1

[10] = compound: O=S(=O)(O)C(F)(F)C(F)(F)C(F)(F)C(F)(F)F [Perfluorobutanesulfonic acid] (in DMSO)
Protocol: as §1

[11] = compound: OCC(F)(F)C(F)(F)C(F)(F)C(F)(F)C(F)(F)C(F)(F)CO [1H,1H,8H,8H-Perfluorooctane-1,8-diol] (in DMSO); settings: 2200 nM
Protocol: as §1

[12] = compound: OCC(F)(F)C(F)(F)C(F)(F)C(F)(F)C(F)(F)C(F)(F)F [6:1 Fluorotelomer alcohol] (in DMSO); settings: 2200 nM
Protocol: as §1

[13] = compound: OCC(F)(F)C(F)(F)C(F)(F)C(F)F [1H,1H,5H-Perfluoropentanol] (in DMSO); settings: 2200 nM
Protocol: as §1

[14] = compound: OCC(F)(F)OC(F)(F)C(F)(F)OC(F)(F)CO [1H,1H,8H,8H-Perfluoro-3,6-dioxaoctane-1,8-diol] (in DMSO); settings: 2200 nM
Protocol: as §1

[15] = compound: OCCCC(F)(F)C(F)(F)C(F)(F)C(F)(F)C(F)(F)C(F)(F)C(F)(F)C(F)(F)F [3-(Perfluorooctyl)propanol] (in DMSO); settings: 2200 nM
Protocol: as §1

Row | Test System | level (log10) [1] | level (log10) [2] | level (log10) [3] | level (log10) [4] | level (log10) [5] | level (log10) (Hexafluoroglutaric acid; 2200 nM) | level (log10) (Hexafluoroglutaric acid; 6700 nM) | level (log10) (Hexafluoroglutaric acid; 20000 nM) | level (log10) (Hexafluoroglutaric acid; 60000 nM) | level (log10) (Perfluorohexanoic acid; 2200 nM) | level (log10) (Perfluorohexanoic acid; 6700 nM) | level (log10) (Perfluorohexanoic acid; 20000 nM) | level (log10) (Perfluorohexanoic acid; 60000 nM) | level (log10) [6] | level (log10) ([7]; 2200 nM) | level (log10) ([7]; 6700 nM) | level (log10) ([7]; 20000 nM) | level (log10) ([7]; 60000 nM) | level (log10) [8] | level (log10) [9] | level (log10) ([10]; 2200 nM) | level (log10) ([10]; 6700 nM) | level (log10) ([10]; 20000 nM) | level (log10) ([10]; 60000 nM) | level (log10) [11] | level (log10) [12] | level (log10) [13] | level (log10) [14] | level (log10) [15]
1 | KF3CT:PAI-I | -0.0375 ± 0.039 | 0.064 ± 0.023 | -0.003 ± 0.0042 | -0.013 ± 0.017 | 0.005 ± 0.0099 | 0 ± 0.017 | -0.004 ± 0.0042 | -0.0005 ± 0.005 | 0.0045 ± 0.0092 | -0.0125 ± 0.0021 | -0.0075 ± 0.00071 | -0.0175 ± 0.0035 | -0.0085 ± 0.00071 | -0.008 ± 0.016 | -0.0435 ± 0.047 | -0.0455 ± 0.012 | -0.0695 ± 0.0078 | -0.054 ± 0.02 | -0.009 | 0.008 ± 0.031 | 0.008 ± 0.024 | -0.014 ± 0.048 | 0.003 ± 0.0099 | -0.007 ± 0.027 | 0.0115 ± 0.011 | 0.0015 ± 0.026 | 0.0155 ± 0.043 | 0.016 ± 0.018 | -0.019 ± 0.024
2 | HDF3CGF:CD106/VCAM-1 | 0.0015 ± 0.016 | -0.121 ± 0.041 | -0.025 ± 0.068 | -0.0055 ± 0.032 | -0.0215 ± 0.036 | -0.0435 ± 0.0021 | -0.045 ± 0.0071 | -0.0195 ± 0.071 | -0.05 ± 0.12 | -0.0745 ± 0.093 | -0.043 ± 0.04 | -0.008 ± 0.023 | -0.0145 ± 0.086 | -0.01 ± 0.035 | -0.0185 ± 0.0064 | -0.039 ± 0.021 | -0.044 ± 0.027 | -0.131 ± 0.016 | -0.049 ± 0.013 | -0.017 ± 0.0085 | 0.0025 ± 0.047 | -0.02 ± 0.013 | -0.01 ± 0.0014 | -0.025 ± 0.058 | -0.008 ± 0.0028 | -0.04 ± 0.098 | -0.037 ± 0.014 | -0.0025 ± 0.0092 | -0.08 ± 0.03
3 | 3C:Proliferation | -0.016 ± 0.052 | -0.031 ± 0.054 | -0.0245 ± 0.019 | -0.0485 ± 0.06 | 0.001 ± 0.041 | -0.0355 ± 0.066 | -0.0055 ± 0.0064 | -0.009 ± 0.068 | -0.0155 ± 0.054 | -0.001 ± 0.016 | -0.0055 ± 0.012 | -0.006 ± 0.0028 | -0.01 ± 0.04 | -0.0505 ± 0.053 | -0.132 ± 0.051 | -0.0765 ± 0.015 | -0.136 ± 0.031 | -0.149 ± 0.023 | 0.0145 ± 0.005 | 0.0015 ± 0.053 | -0.0135 ± 0.093 | -0.002 ± 0.0014 | 0.017 ± 0.031 | -0.0525 ± 0.023 | -0.073 ± 0.041 | -0.007 ± 0.0071 | -0.0475 ± 0.011 | -0.061 ± 0.034 | -0.02 ± 0.057
4 | MyoF:MMP-1 | 0.0575 ± 0.032 | -0.0045 ± 0.08 | 0.033 ± 0.044 | 0.016 ± 0.064 | 0.01 ± 0.078 | 0.0165 ± 0.0078 | 0 ± 0.0085 | -0.0115 ± 0.012 | -0.008 ± 0.014 | 0.0095 ± 0.029 | -0.0115 ± 0.0035 | -0.0055 ± 0.019 | 0.0235 ± 0.025 | 0.0285 ± 0.061 | 0.0225 ± 0.04 | -0.0025 ± 0.0064 | 0.0185 ± 0.0092 | -0.0095 ± 0.0064 | -0.0165 ± 0.05 | 0.0165 ± 0.076 | 0.054 ± 0.052 | 0.0385 ± 0.005 | 0.065 ± 0.0071 | 0.0885 ± 0.0035 | 0.013 ± 0.099 | 0.006 ± 0.055 | -0.0415 ± 0.0092 | 0.0045 ± 0.074 | 0.0105 ± 0.08
